These are yes or no findings as the source states them, for the method shown. Binding seen in cells or lysates may run through a third protein. Some entries that bind do so weakly or less than the wild type. For some assays here: Where a sequence is shown, tags or fusion partners need not be part of it.
T1: FLAG-tagged NXF1 (UniProt Q9UBU9)
T1 sequence: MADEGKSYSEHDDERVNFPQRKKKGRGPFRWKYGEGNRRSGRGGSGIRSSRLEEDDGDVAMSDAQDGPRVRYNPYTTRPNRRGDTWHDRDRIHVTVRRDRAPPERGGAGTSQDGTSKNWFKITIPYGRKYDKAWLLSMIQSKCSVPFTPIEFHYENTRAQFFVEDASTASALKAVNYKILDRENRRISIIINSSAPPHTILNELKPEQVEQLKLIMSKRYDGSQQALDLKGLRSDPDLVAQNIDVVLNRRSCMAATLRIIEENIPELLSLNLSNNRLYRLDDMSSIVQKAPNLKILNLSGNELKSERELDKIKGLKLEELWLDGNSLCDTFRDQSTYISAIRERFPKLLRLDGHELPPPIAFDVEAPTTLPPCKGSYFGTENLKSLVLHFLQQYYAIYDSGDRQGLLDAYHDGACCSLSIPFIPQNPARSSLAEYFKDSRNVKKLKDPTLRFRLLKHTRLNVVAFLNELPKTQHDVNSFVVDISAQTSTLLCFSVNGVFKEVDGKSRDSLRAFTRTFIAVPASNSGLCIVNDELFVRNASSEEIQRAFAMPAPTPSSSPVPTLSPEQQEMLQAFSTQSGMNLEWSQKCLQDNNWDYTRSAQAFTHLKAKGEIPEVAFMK

Protein sequences, listed by entry. Tags and fused reporters are not part of them. Lines headed by an entry give the natural chain unless they say otherwise; changes in a name come on top. Residues count along the entry.
UniProt Q07955: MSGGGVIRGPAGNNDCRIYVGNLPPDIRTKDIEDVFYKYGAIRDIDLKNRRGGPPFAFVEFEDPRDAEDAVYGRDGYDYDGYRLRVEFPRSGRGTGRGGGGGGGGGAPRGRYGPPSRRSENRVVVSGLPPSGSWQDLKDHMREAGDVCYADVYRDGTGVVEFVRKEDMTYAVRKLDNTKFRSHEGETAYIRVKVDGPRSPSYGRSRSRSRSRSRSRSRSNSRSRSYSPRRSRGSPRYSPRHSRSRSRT
GST-SRSF1 fusion, amino-acids 89-120 (linker between the two RNA recognition motifs): residues 89-120 of Q07955

T2: GST-NXF1:p15 complex (UniProt Q9UBU9)
T2 sequence 1: T1 sequence
T2 sequence 2: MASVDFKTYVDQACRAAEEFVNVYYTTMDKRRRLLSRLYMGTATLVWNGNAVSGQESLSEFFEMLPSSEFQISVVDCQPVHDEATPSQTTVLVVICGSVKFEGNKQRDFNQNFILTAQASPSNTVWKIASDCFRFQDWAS

B1: 35S-methionine radiolabeled NXF1 amino-terminal RNA-binding region (aa 1-198) (domain or fragment, UniProt Q9UBU9 1-198)
chain: MADEGKSYSEHDDERVNFPQRKKKGRGPFRWKYGEGNRRSGRGGSGIRSSRLEEDDGDVAMSDAQDGPRVRYNPYTTRPNRRGDTWHDRDRIHVTVRRDRAPPERGGAGTSQDGTSKNWFKITIPYGRKYDKAWLLSMIQSKCSVPFTPIEFHYENTRAQFFVEDASTASALKAVNYKILDRENRRISIIINSSAPPH
modifications: 35S-methionine radiolabel

What was measured:
[1] = molecular target: T1, FLAG-tagged NXF1; experiment: co-IP
[2] = molecular target: T2, GST-NXF1:p15 complex; experiment: pull-down
[3] = molecular target: GST-SRSF1 fusion, amino-acids 89-120 (linker between the two RNA recognition motifs) (UniProt Q07955); experiment: pull-down

Molecule	binding [1]	binding [2]	binding [3]
endogenous SRSF1 (from UniProt Q07955 1-248)	binds		
SRSF1 WT-CPP (SRSF1 aa89-120, V5 tag, TAT protein transduction domain) (from UniProt Q07955 89-120; P04608 47-57) (peptide)	binds	binds	
full length mammalian SRSF1 synthesized in rabbit reticulocytes (from UniProt Q07955 1-248)		binds	
B1			binds

— publication doi:10.1101/2021.05.23.445325 (bioRxiv, 2021)
